Data as given in PubChem BioAssay AID1259308 (NCATS, 2017).
Assay: 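Knock-downs that increase output of a recombinant reporter protein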 (primary screen). System: human HEK293 embryonic kidney cells stably expressing firefly luciferase (HEK-CMV-Luc2-Hygro). Knock-down reagent: single siRNA against human genes, 0.8 pmol siRNA per well. Duration: 72 h. Read-out: 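Reporter luminescence and viable-cell signal on separate replicate plates, given as percent of non-targeting control and median/MAD z-scores, plus per-cell luciferase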. Scale: total luciferase, z-score and total luciferase, % of control: higher = more reporter protein produced; luciferase per cell, z-score: higher = more reporter output per viable cell; viable cells, % of control: higher = more viable cells. Active means: 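An siRNA counts as active if its total luciferase robust z-score exceeds 3; genes with two or more such siRNAs out of three were retested with fresh siRNAs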. Meaning of the calls: active = raised luciferase; inactive = no rise.
This is an unselected part of about 59,000 reagents tested. About 1,510 of them (2.6%) count as active. 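Calls use total luciferase alone and ignore viability, so some active siRNAs may act by altering cell number.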 The numbers tell different reagents against one gene apart. No sequences are given here.

The opening 5 entries, to show the layout:
Target gene	reagent	total luciferase, z-score	total luciferase, % of control	luciferase per cell, z-score	viable cells, % of control	Outcome
FOLR1 (folate receptor alpha)	1	-0.45	72.9	0.136	78.6	inactive
FOLR1 (folate receptor alpha)	2	-2.28	36.5	-2.2	72.7	inactive
FOLR1 (folate receptor alpha)	3	-1.92	43.8	-0.572	56.9	inactive
RMDN3 (regulator of microtubule dynamics 3)	1	0.163	85.1	-0.204	100	inactive
RMDN3 (regulator of microtubule dynamics 3)	2	0.6	93.8	0.71	87	inactive

The list itself, from the start:
Target gene	reagent	total luciferase, z-score	total luciferase, % of control	luciferase per cell, z-score	viable cells, % of control	Outcome
FOLR1 (folate receptor alpha)	1	-0.45	72.9	0.136	78.6	inactive
FOLR1 (folate receptor alpha)	2	-2.28	36.5	-2.2	72.7	inactive
FOLR1 (folate receptor alpha)	3	-1.92	43.8	-0.572	56.9	inactive
RMDN3 (regulator of microtubule dynamics 3)	1	0.163	85.1	-0.204	100	inactive
RMDN3 (regulator of microtubule dynamics 3)	2	0.6	93.8	0.71	87	inactive
RMDN3 (regulator of microtubule dynamics 3)	3	-1.92	43.8	-1.88	80.2	inactive
TMEM179B (transmembrane protein 179B)	1	-0.843	65.1	0.341	66.5	inactive
TMEM179B (transmembrane protein 179B)	2	0.819	98.2	1.66	70.9	inactive
TMEM179B (transmembrane protein 179B)	3	-0.485	72.2	-0.0267	81.3	inactive
TAC3 (tachykinin precursor 3)	1	0.185	85.6	-0.785	118	inactive
TAC3 (tachykinin precursor 3)	2	1.7	116	2.01	76.2	inactive
TAC3 (tachykinin precursor 3)	3	-0.284	76.2	-0.399	94.6	inactive
CREM (cAMP responsive element modulator)	1	0.0995	83.9	-0.0361	94.6	inactive
CREM (cAMP responsive element modulator)	2	-3.19	18.4	-3.65	53.7	inactive
CREM (cAMP responsive element modulator)	3	0.473	91.3	0.609	86.9	inactive
SLC7A8	1	-0.987	62.2	-1.46	102	inactive
SLC7A8	2	0.544	92.7	0.661	87.1	inactive
SLC7A8	3	0.966	101	2.42	59.8	inactive
UBE2D1 (ubiquitin conjugating enzyme E2 D1)	1	-0.197	78	0.0194	86.7	inactive
UBE2D1 (ubiquitin conjugating enzyme E2 D1)	2	0.362	89.1	0.267	92.8	inactive
UBE2D1 (ubiquitin conjugating enzyme E2 D1)	3	-0.368	74.6	-0.459	94	inactive
VDAC2 (voltage dependent anion channel 2)	1	-0.578	70.4	-1.23	109	inactive
VDAC2 (voltage dependent anion channel 2)	2	-0.158	78.7	-0.602	103	inactive
VDAC2 (voltage dependent anion channel 2)	3	1.14	105	1.12	87.2	inactive
SIAH3 (siah E3 ubiquitin protein ligase family member 3)	1	2.22	126	1.31	99.7	inactive
SIAH3 (siah E3 ubiquitin protein ligase family member 3)	2	0.228	86.4	0.333	88.5	inactive
SIAH3 (siah E3 ubiquitin protein ligase family member 3)	3	-0.314	75.6	-0.746	103	inactive
CPN1 (carboxypeptidase N subunit 1)	1	-0.491	72.1	-0.334	88	inactive
CPN1 (carboxypeptidase N subunit 1)	2	-0.809	65.8	-0.481	83.4	inactive
CPN1 (carboxypeptidase N subunit 1)	3	-0.0842	80.2	0.125	86.7	inactive
RDH5 (retinol dehydrogenase 5)	1	0.0779	83.4	0.0599	91.8	inactive
RDH5 (retinol dehydrogenase 5)	2	1.15	105	1.2	85.4	inactive
RDH5 (retinol dehydrogenase 5)	3	0.572	93.3	-0.0589	106	inactive
PNPLA5 (patatin like domain 5, triacylglycerol lipase)	1	-1	61.9	0.354	63	inactive
PNPLA5 (patatin like domain 5, triacylglycerol lipase)	2	0.0958	83.8	0.384	84.6	inactive
PNPLA5 (patatin like domain 5, triacylglycerol lipase)	3	2.3	128	1.91	86.2	inactive
SLC9B1	1	0.74	96.6	-0.33	118	inactive
SLC9B1	2	0.351	88.9	0.568	85.5	inactive
SLC9B1	3	0.703	95.9	1.32	75.7	inactive
ATP8B2 (ATPase phospholipid transporting 8B2)	1	-0.139	79.1	-0.988	115	inactive
ATP8B2 (ATPase phospholipid transporting 8B2)	2	0.119	84.3	0.526	82	inactive
ATP8B2 (ATPase phospholipid transporting 8B2)	3	3.08	143	1.88	97.5	active
SAR1A (secretion associated Ras related GTPase 1A)	1	0.682	95.5	3.94	37.8	inactive
SAR1A (secretion associated Ras related GTPase 1A)	2	-3.22	17.9	-4.68	68.8	inactive
SAR1A (secretion associated Ras related GTPase 1A)	3	0.211	86.1	-0.161	100	inactive
ASPSCR1 (ASPSCR1 tether for SLC2A4, UBX domain containing)	1	1.37	109	1.63	79.5	inactive
ASPSCR1 (ASPSCR1 tether for SLC2A4, UBX domain containing)	2	0.0108	82.1	0.12	88.9	inactive
ASPSCR1 (ASPSCR1 tether for SLC2A4, UBX domain containing)	3	-1.24	57.2	-1.42	92.8	inactive
PCDH7 (protocadherin 7)	1	1.62	114	1.83	78.7	inactive
PCDH7 (protocadherin 7)	2	0.731	96.4	0.385	97.4	inactive
PCDH7 (protocadherin 7)	3	-0.133	79.2	0.427	79.1	inactive
NOBOX (NOBOX oogenesis homeobox)	1	3.21	146	2.66	80.9	active
NOBOX (NOBOX oogenesis homeobox)	2	-1.84	45.2	-1.89	83.1	inactive
NOBOX (NOBOX oogenesis homeobox)	3	0.461	91.1	0.816	82.1	inactive
GMPR2 (guanosine monophosphate reductase 2)	1	-0.468	72.6	-0.163	84.7	inactive
GMPR2 (guanosine monophosphate reductase 2)	2	0.0168	82.2	0.377	83.2	inactive
GMPR2 (guanosine monophosphate reductase 2)	3	0.421	90.3	0.284	93.6	inactive
